Results taken from PubChem BioAssay AID1999 (Broad Institute, 2009).
The other results are listed elsewhere or left out. Measured potencies and affinities stand elsewhere. Entries without a call are filed as inconclusive in the source.

assay: activators of PrP 5'UTR-driven reporter translation, dose response, luminescence (AID 1999); settings: H4 cells, PrP 5'UTR luciferase reporter; at 12 µM (top of the series) unless noted

First: CCOC(=O)c1c(C)[nH]c(N=Nc2ccc(C)cc2)c1C
Second: CCc1ccc(NC(=O)c2[nH]c(C)c(C(C)=O)c2C)cc1
The activation of the first is lower: 60.3% for the first, 69.1% for the second.

Going from `O=C(Nc1ccccc1)c1cc2ccccc2c(=O)s1` to `Cc1ccc(C(=O)Nc2nc3ccccc3c(=O)s2)cc1`, the activation falls from 68.9% to 21.1%.

First: C=CCn1c(C)nc2c(sc3nc4c(cc32)COC(C)(C)C4)c1=O
Second: CC1(C)CC(=O)c2cnc(N3CCc4ccccc4C3)nc2C1
The activation of the first is lower: 38.2% for the first, 43.2% for the second.

First: c1ccc(-c2nnc(SCCC3OCCCO3)o2)cc1
Second: c1ccc(OCCSc2nnnn2C2CCCCC2)cc1
The activation of the first is lower: 33.3% for the first, 62.6% for the second.

Going from `COc1ccc2cc(C(=O)NCC3CCCO3)[nH]c2c1` (stereo not drawn) to `COC(=O)c1cc(CSc2nc3ccccc3[nH]2)oc1C`, the activation falls from 117% to 67.3%.

First: C=CCNc1ncnc2c1[nH]c1ccc(Cl)cc12
Second: COc1ccc(Nc2ncnc3c2oc2ccccc23)cc1
The activation of the first is higher: 106% for the first, 60.7% for the second.

Compared with `Cc1nc(-c2ccccc2)sc1-c1ccnn1C`, `Cc1cc(N)n2ncc(-c3ccccc3)c2n1` is lower in activation: 77.4% for the first, 52.9% for the second.

Compared with `COc1ccc(/C=C2\SC(=O)N(CCNC(=O)C3CC4C=CC3C4)C2=O)cc1` (stereo not drawn), `COc1ccc(-c2cc3c(=O)n(CC(=O)NCc4ccc(F)cc4)ncn3n2)cc1` is lower in activation: 61.9% for the first, 17.6% for the second.

First: Clc1nc(-c2ccccn2)nc2scc(-c3ccccc3)c12
Second: O=C(Nc1cc(-c2ccccc2)[nH]n1)c1ccccc1F
The activation of the first is lower: -10.1% for the first, 44.7% for the second.

Going from `O=C(Cc1ccccc1)NC(=S)Nc1ccc2oc(-c3ccccc3F)nc2c1` to `CCc1ccc2oc(-c3cc(N=Cc4cccc(OC)c4O)ccc3O)nc2c1`, the activation falls from 22.4% to -5.6%.

Going from `CN(C)c1ccc(NC(=O)c2sc(SCC(=O)Nc3nccs3)nc2N)cc1` to `O=C(Nc1nc2ccsc2c(=O)s1)c1ccc(F)cc1`, the activation rises from 51.9% to 58.9%.

Going from `CCSc1nn2c(=O)c3ccccc3nc2s1` to `COCCn1c(C)cc(C(=O)CSc2nc3ccccc3c(=O)[nH]2)c1C`, the activation rises from 39.2% to 46.9%.

Compared with `CCC(=O)Nc1cccc(-c2nnc(SCC(=O)c3ccccc3)n2C)c1`, `Cc1nc2cc(NC(=O)CCS(=O)(=O)c3ccccc3)ccc2s1` is lower in activation: 66.2% for the first, 44.6% for the second.

First: Cc1ccc(N2CCN(C(=O)c3cn(CC4CCCCC4)nn3)C(C)C2)cc1 (stereo not drawn)
Second: O=C(NC1CCCCCC1)c1ccc(CN2CCOCC2)cc1
The activation of the first is lower: 64.7% for the first, 66.5% for the second.

Compared with `CC(C)(C)CC(=O)Nc1nnc(-c2cccs2)s1`, `O=C(NC1CCCC1)c1cc(-c2cccs2)on1` is higher in activation: 43.4% for the first, 92.7% for the second.

Going from `Cc1cc(C(=O)CSc2nc3ccccc3o2)c(C)n1C1CC1` to `CCOC(=O)c1c(-c2ccccc2)cn2c(C)cc(C)nc12`, the activation rises from 45.1% to 67.5%.

Compared with `O=C(Nc1ncccc1O)c1ccc(Oc2ccccc2)cc1`, `Cc1ccc(NC(=O)c2ccc(OC(=O)CCN3C(=O)c4ccccc4C3=O)cc2)cc1` is higher in activation: 49.8% for the first, 73% for the second.

First: Cc1ccc2c(c1)sc1nc(=O)n(-c3cccc(Cl)c3)c(=O)n12
Second: O=C(Nc1cccc(Cl)c1)c1ccc2c(=O)n3c(nc2c1)CCCCC3
The activation of the first is higher: 64.3% for the first, 16.4% for the second.

First: Cc1cc(C)n2nc(Nc3ccccc3)cc2n1
Second: Cc1ccc(OCc2nc(-c3ccccc3)no2)c(C)c1
The activation of the first is lower: 58.5% for the first, 73.9% for the second.

Compared with `c1ccc2nc(-c3ccc(-n4ccnc4)cc3)ccc2c1`, `O=C(Nc1ccc(-c2cn3ccccc3n2)cc1)c1ccco1` is higher in activation: 10.1% for the first, 35.9% for the second.

Going from `O=C(CN1C(=O)NC2(CCCCCC2)C1=O)c1ccc2c(c1)OCCO2` to `O=C(Nc1nc(-c2ccc3c(c2)OCCO3)cs1)C1CCCC1`, the activation falls from 76.9% to 74.4%.

Compared with `CC1CCC(=C(C#N)c2nc(-c3cc4ccccc4oc3=O)cs2)CC1` (stereo not drawn), `O=C1N(c2ccccc2)C[C@@H]2C[C@@H](c3cc4ccccc4o3)N3CCC[C@@]123` is lower in activation: 71.7% for the first, -77.7% for the second.

Going from `COC(=O)CCN1CCc2cc(N=Nc3ccc([N+](=O)[O-])cc3)ccc21` to `CCOC(=O)CSc1nc(-c2ccc3c(c2)OCO3)ccc1C#N`, the activation rises from 18.8% to 56.6%.

First: CCOC(=O)C(=O)N(Nc1ccc(C)cc1)c1ccc(C)cc1
Second: Cc1ccc(/C(N)=N/OC(=O)CSc2ccccc2)cc1
The activation of the first is higher: 77.2% for the first, 43.7% for the second.

First: Cc1nc2c(C(=O)N3CCCCC3)cnn2c(C)c1Cc1ccccc1F
Second: O=c1sc(N2CCN(c3ccccc3F)CC2)nc2ccsc12
The activation of the first is lower: 44.6% for the first, 79% for the second.

First: Cc1cc(NC(=O)OC2CCCCC2)ccc1[N+](=O)[O-]
Second: CC(C)c1ccc(NC(=O)NC2CCCCC2)cc1
The activation of the first is higher: 56.3% for the first, 37.8% for the second.

First: C/C(=N\Nc1ccc(C(=O)O)cc1)c1nc2ccccc2n1C
Second: COc1ccc(Nc2cnn(-c3nc4ccccc4s3)c(=O)c2Cl)cc1
The activation of the first is higher: 111% for the first, 53.1% for the second.

Going from `CSc1nsc(N/N=C/c2ccc3c(c2)OCO3)c1C#N` to `O=C(N/N=C\c1cccc(Cl)c1)c1n[nH]c2c1CCCC2`, the activation falls from 60.1% to 31.3%.

First: COc1cccc(Nc2nnc(SCc3nc4ccccc4s3)s2)c1
Second: Cc1ccccc1-n1c(C)nnc1SCc1nc2ccccc2s1
The activation of the first is higher: 110% for the first, 73.6% for the second.

Compared with `N/C(=N\OC(=O)c1cccc(F)c1)c1ccccc1`, `Nc1c(C(=O)c2ccccc2)oc2ccc(Br)cc12` is lower in activation: 124% for the first, 93.9% for the second.

Compared with `O=C(Nc1ncc(Cc2ccccc2)s1)C1COc2ccccc2O1` (stereo not drawn), `Cc1ccc(Cn2ccnc2C(=O)Nc2ccccc2)cc1` is higher in activation: 67.4% for the first, 91.8% for the second.

Compared with `Cc1ccc2cc(CCNC(=O)c3cccs3)c(=O)[nH]c2c1C`, `Cc1ccc(-c2c(C)sc(=NC(=O)c3ccco3)n2C)cc1` is lower in activation: 57% for the first, 9.6% for the second.

Going from `CN1CCN(CC(=O)N(C)c2nc(-c3ccccc3)cs2)CC1` to `CCOC(=O)c1cnc(SCc2ccccc2)nc1N`, the activation falls from 35.8% to 33.2%.

Compared with `Clc1ccc(Nc2nc3cccnc3s2)cc1`, `O=C(NC1=NCCS1)c1ccc(-c2ccc(Cl)cc2)o1` is lower in activation: 94.2% for the first, 74.2% for the second.

Going from `CC1Oc2cc3oc4c(O)c5c(cc4c(=O)c3c(O)c2C1(C)C)C=CC(C)(C)O5` (stereo not drawn) to `COc1c2c(cc3oc(=O)c4c5ccc(O)cc5oc4c13)OC(C)(C)CC2`, the activation falls from 103% to 83.5%.

Going from `O=C(NCC(O)c1ccccc1)c1ccc(Cl)c(S(=O)(=O)N2CCCC2)c1` (stereo not drawn) to `COc1c(C)cccc1C(=O)Nc1ccc(N2CCOCC2)c(Cl)c1`, the activation falls from 49.8% to 41.7%.

First: Nc1c(C(=O)Nc2ccc3c(c2)OCCO3)nnn1Cc1ccc(Br)cc1
Second: c1ccc2c(c1)oc1c(Nc3ccc(CN4CCOCC4)cc3)ncnc12
The activation of the first is higher: 65.1% for the first, 50.4% for the second.

Going from `N#Cc1c(NC(=O)C2CCCO2)sc2c1CCCCC2` (stereo not drawn) to `CSc1ccc(CNC(=O)Cc2ccc(NC(=O)C3=C(C)OCCS3)cc2)cc1`, the activation falls from 61% to 17.9%.

Compared with `NC(=O)C1CC(=O)N(c2ccc(OCc3ccc(Cl)cc3)cc2)C1` (stereo not drawn), `Cc1ccc(OCCOc2cccc(Br)c2)c([N+](=O)[O-])n1` is higher in activation: 63.5% for the first, 67% for the second.

Going from `Cc1ccc(N=Nc2c(C)[nH]n(C(N)=S)c2=O)cc1C` to `COc1ccc(C(=O)N=c2sc3c(C)ccc(OC)c3n2C)cc1OC`, the activation falls from 108% to 56.1%.

First: Clc1ccc(-c2nsc(N3CCOCC3)n2)c(Cl)c1
Second: CCOc1ccc2nc(N3CCOCC3)nc(C)c2c1
The activation of the first is lower: 38.3% for the first, 58% for the second.

Going from `N/C(=N\N=C\c1ccc(O)cc1)c1nonc1N` to `CN(C)c1ccc(/C=N/n2ncc3ccccc32)cc1`, the activation falls from 59.4% to -33.2%.

Compared with `Cn1cccc1/C=C1\CCC/C(=C\c2cccn2C)C1=O`, `COc1cccc2[nH]c(=O)c(-c3ccccc3)cc12` is lower in activation: 77.5% for the first, 54.6% for the second.

Compared with `Cc1ccc(C(=O)Cn2ncsc2=N)cc1`, `Cc1cc(NC(=O)c2cccc(Br)c2)n[nH]1` is lower in activation: 63.9% for the first, 62.1% for the second.

First: Cc1c(C(=O)NC(=S)NCC(C)C)oc2ccccc12
Second: Nc1c(-c2cccs2)cnn1-c1nc(-c2ccc(F)cc2)cs1
The activation of the first is higher: 85.9% for the first, 52.6% for the second.

Compared with `Cc1c(C(=O)Nc2ccccc2[N+](=O)[O-])csc1-c1ccccc1`, `COc1cccc(-c2cn3nc(C)c(C)nc3n2)c1` is lower in activation: 101% [at 6 µM] for the first, 50.7% [at 6 µM] for the second.

In the case of `O=[N+]([O-])c1ccc2c(c1)nc1n2CCN(C2CCCCC2)C1`, the activation is reported as 17.3% [at 6 µM].
